The supplement of paper PMC6078165

Tested on: BT20
Assay: relative JC-1 red fluorescence (viability) vs pre-drug, coculture with fibroblast (fraction); higher = more viable cancer cells
Method: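 JC-1 labelled TNBC cells cocultured 1:1 (1,500 cells each) with CellTrace Violet stained primary or stromal fibroblasts in 384-well plates in FluoroBrite medium, treated with one of 42 anticancer drugs at 0.1, 1, 10 or 100 uM. JC-1 red fluorescence (mitochondrial integrity in cancer cells only) was read by plate reader every 8 h for 72 h. Values are normalised to each well's pre-drug value. The stock of one drug was tenfold lower, so its dose labels may be too high.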

O=c1[nH]cc(F)c(=O)[nH]1 [Fluorouracil]
relative JC-1 red fluorescence
Details	8 h	16 h	24 h	32 h	40 h	48 h	56 h	64 h	72 h
0.1 µM, coculture fibroblast: C12385	0.904	0.835	0.7248	0.663	0.59772	0.563	0.535	0.509	0.494
0.1 µM, coculture fibroblast: H6013	0.92	0.911	0.875	0.84	0.791	0.769	0.76	0.7313	0.699
0.1 µM, coculture fibroblast: H6019	0.84131	0.7425	0.72	0.658	0.595	0.576	0.542	0.515	0.496
0.1 µM, coculture fibroblast: H6076	0.933	0.8435	0.775	0.745	0.722	0.708	0.7082	0.7049	0.6881
0.1 µM, coculture fibroblast: H6231	0.759	0.938	0.785	0.7154	0.673	0.6248	0.583	0.553	0.536
0.1 µM, coculture fibroblast: HADF	0.961	0.908	0.838	0.808	0.774	0.734	0.716	0.693	0.656
0.1 µM, coculture fibroblast: HCFa	0.957	0.859	0.823	0.776	0.723	0.688	0.66	0.632	0.6
0.1 µM, coculture fibroblast: HCPF	0.79	0.908	0.838	0.794	0.747	0.699	0.654	0.646	0.607
0.1 µM, coculture fibroblast: HHSteC	0.975	0.912	0.818	0.853	0.7339	0.727	0.786	0.734	0.753
0.1 µM, coculture fibroblast: HMF	0.896	0.847	0.7454	0.684	0.648	0.603	0.566	0.534	0.504
0.1 µM, coculture fibroblast: HPFa	0.922	0.927	0.9206	0.862	0.831	0.804	0.787	0.776	0.749
0.1 µM, coculture fibroblast: HUF	0.928	0.804	0.7767	0.6943	0.642	0.606	0.58	0.564	0.55
0.1 µM, coculture fibroblast: Hs5	0.852	0.8734	0.806	0.766	0.717	0.68	0.646	0.615	0.587
0.1 µM, coculture fibroblast: Hs27A	0.9105	0.9636	0.894	0.853	0.806	0.787	0.771	0.749	0.695
0.1 µM, coculture fibroblast: Hs343T	0.7772	0.8917	0.779	0.698	0.651	0.596	0.541	0.519	0.483
0.1 µM, coculture fibroblast: WS1	0.85575	0.757	0.687	0.611	0.551	0.522	0.486	0.459	0.448
1 µM, coculture fibroblast: C12385	0.909	0.8335	0.777	0.716	0.648	0.613	0.583	0.565	0.551
1 µM, coculture fibroblast: H6013	0.929	0.856	0.837	0.789	0.744	0.726	0.729	0.708	0.695
1 µM, coculture fibroblast: H6019	0.859	0.751	0.732	0.661	0.615	0.599	0.564	0.541	0.52
1 µM, coculture fibroblast: H6076	0.901	0.823	0.752	0.72	0.698	0.673	0.671	0.67	0.659
1 µM, coculture fibroblast: H6231	0.833	0.921	0.782	0.706	0.645	0.591	0.551	0.528	0.497
1 µM, coculture fibroblast: HADF	0.9605	0.845	0.841	0.78	0.749	0.71	0.688	0.674	0.642
1 µM, coculture fibroblast: HCFa	0.8732	0.812	0.769	0.704	0.654	0.621	0.591	0.563	0.524
1 µM, coculture fibroblast: HCPF	0.987	0.83	0.777	0.717	0.685	0.648	0.604	0.5727	0.536
1 µM, coculture fibroblast: HHSteC	0.892	0.818	0.81	0.729	0.704	0.676	0.661	0.644	0.613
1 µM, coculture fibroblast: HMF	0.972	0.808	0.748	0.697	0.656	0.617	0.59	0.56	0.533
1 µM, coculture fibroblast: HPFa	0.9296	0.854	0.85	0.756	0.723	0.672	0.65	0.61	0.551
1 µM, coculture fibroblast: HUF	0.929	0.847	0.851	0.775	0.731	0.688	0.672	0.649	0.628
1 µM, coculture fibroblast: Hs5	0.9926	0.86891	0.7967	0.7417	0.704	0.666	0.626	0.595	0.569
1 µM, coculture fibroblast: Hs27A	0.897	0.931	0.822	0.829	0.836	0.763	0.75	0.841	0.797
1 µM, coculture fibroblast: Hs343T	0.905	0.832	0.7432	0.673	0.626	0.58	0.539	0.514	0.488
1 µM, coculture fibroblast: WS1	0.8555	0.753	0.713	0.651	0.608	0.584	0.558	0.532	0.528

Values are relative to the signal before dosing, not to a vehicle control; the signal also falls without drug.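 Fibroblast labels denote human fibroblasts, mainly primary ones from uterus (C12385, HUF), lung (H6013), bone (Hs27A), adrenal (HADF) and skin (WS1), plus mammary HMF and breast cancer-associated Hs343T. Cancer cells are basal-like or mesenchymal-like triple-negative breast cancer lines. A hit is a response shift exceeding 3x replicate standard deviation. The tissue of the other fibroblasts is not given here.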
